# According to PubChem BioAssay AID1671190 (National Center for Advancing Translational Sciences (NCATS), 2021):
# Sequences of proteins named here, by UniProt entry; tags and fusion partners are left off. A change or cut given only in a name is not applied to a line headed by its entry.
# UniProt P18054: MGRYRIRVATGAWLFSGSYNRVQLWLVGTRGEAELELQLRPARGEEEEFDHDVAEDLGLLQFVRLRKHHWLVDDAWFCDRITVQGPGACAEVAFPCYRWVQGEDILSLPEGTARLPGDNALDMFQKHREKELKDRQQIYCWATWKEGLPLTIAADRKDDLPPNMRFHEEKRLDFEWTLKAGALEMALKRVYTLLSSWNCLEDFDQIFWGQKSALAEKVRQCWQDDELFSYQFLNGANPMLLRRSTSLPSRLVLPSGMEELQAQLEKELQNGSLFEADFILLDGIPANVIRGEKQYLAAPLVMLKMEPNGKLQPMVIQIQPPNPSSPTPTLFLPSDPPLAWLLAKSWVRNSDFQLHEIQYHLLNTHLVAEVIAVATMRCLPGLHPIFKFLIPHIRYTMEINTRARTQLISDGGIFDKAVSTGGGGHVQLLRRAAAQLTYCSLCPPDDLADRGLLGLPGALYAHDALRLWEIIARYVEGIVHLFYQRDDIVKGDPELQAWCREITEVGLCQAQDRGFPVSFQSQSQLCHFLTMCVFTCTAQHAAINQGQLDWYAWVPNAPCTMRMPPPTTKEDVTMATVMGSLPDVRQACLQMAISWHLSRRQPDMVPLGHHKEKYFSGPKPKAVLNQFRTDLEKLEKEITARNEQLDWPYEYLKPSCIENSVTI
# Screen size: about 580,000 compounds; about 6,100 (1.1%) were called active. The inconclusive results got no clear call from the source; some entries with a clear call stand among them for comparison. Calls follow the shape of the dose curve; as a rule, active = well fitted inhibition curve with a large enough effect; inconclusive = small, poorly fitted or top-dose-only effect, or another doubt; inactive = no such curve, though single readings can be large or run the other way. A potency beside an inconclusive call is a rough fit, not a confirmed value.
# Molecular target: Polyunsaturated fatty acid lipoxygenase ALOX12 (Homo sapiens) (UniProt P18054)
# Assay: Primary qHTS assay for inhibitors of human arachidonate 12S-lipoxygenase (ALOX12): Round 2
# Conditions: purified 12hLO, xylenol orange hydroperoxide absorbance; activity change, negative = inhibition: at 108 µM (top of the series) unless noted
# Method in brief: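 Hydroperoxide product was detected by ferrous iron/xylenol orange as the 573 to 405 nm absorbance ratio. Arachidonic acid at 40 uM (final) was turned over for 30 min at room temperature by 150 nM human 12hLO, pH 7.0 Hepes buffer, after 15 min compound preincubation.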
# % is scaled to controls: 0 for no effect and ±100 for the full control effect; potency is read from the fitted curve at half-maximal effect.
SMILES,Potency,"activity change, negative = inhibition"
O=C(c1cccs1)N1CCN(CCCc2ccccc2)CC1,"inconclusive: 0.794 µM [inhibitor, full curve]",
CCc1ccc(C(=O)N2C[C@@H](F)C[C@H]2C(=O)N2CCCCC2)cc1,inactive,
Cc1ccc(N2NC3(CCC(C)CC3)NC2=S)cc1 (stereo unspecified),active: 1.26 µM,
COc1cc(C(=O)NC2CCN(C)CC2)ccc1Nc1ncc2c(n1)N(Cc1ccccc1)CCC(=O)N2C,"inconclusive: 44.7 µM [inhibitor, partial curve, poor fit]",
O=C(c1ccc(Cl)cc1)c1ccc(OCC(O)CN2CCCCC2)cc1 (stereo unspecified),"inconclusive: 141 µM [inhibitor, partial curve, poor fit]",
CS(=O)(=O)c1ccc(CNC(=O)[C@]2(C(F)(F)F)C[C@H](CCc3ccccc3)CCCO2)cc1,"inconclusive: 39.8 µM [inhibitor, single point]",
CC(=O)n1cc([C@@H]2C=C(C(=O)NCc3ccccc3)O[C@H](OCc3ccc(CO)cc3)C2)c2ccccc21,inactive,
C/C=C1\COC(C(=O)NCc2ccccc2)(C(F)(F)F)C=C1C=C(C)C (stereo unspecified),inactive,
Cc1ccc(NS(=O)(=O)c2ccc(C(=O)NC3CCN(Cc4ccccc4)CC3)cc2)cc1,"inconclusive: 44.7 µM [inhibitor, partial curve]",
c1ccc2c(NCCN3CCOCC3)nc(-c3ccc4c(c3)OCO4)nc2c1,"inconclusive: 35.5 µM [inhibitor, partial curve, poor fit]",
CCOc1ccc(NC(=O)Cn2c(=O)oc3cc(S(=O)(=O)N4CCC(C)CC4)ccc32)cc1,"inconclusive: 5.01 µM [inhibitor, full curve, poor fit]",
COC(=O)c1sc(NC(=O)/C=C/c2ccc(C)o2)nc1C,"inconclusive: 44.7 µM [inhibitor, full curve, poor fit]",
O=C(CSc1nnc2scc(-c3ccc(Cl)cc3)n12)NCc1ccco1,inactive,
O=[N+]([O-])c1ccc(C=Nc2ccc(Cl)cc2Cl)s1,"inconclusive: 50.1 µM [inhibitor, single point]",
COc1ccc(-c2cc(-c3ccc4c(c3)C(=O)NC4)cn3cncc23)cc1,"inconclusive: 25.1 µM [inhibitor, full curve, poor fit]",
CN1CC(C(=O)O)Cc2c1ccc1ccccc21 (stereo unspecified),"inconclusive: 39.8 µM [inhibitor, partial curve, poor fit]",
O=C(NC1CC1)C1=C[C@@H](c2ccccc2)C[C@@H](OCc2ccc(CO)cc2)O1,"inconclusive: 112 µM [inhibitor, single point]",
Cc1cc(CSC(=N)N)c(CSC(=N)N)cc1C,"inconclusive: 1.78 µM [inhibitor, full curve, poor fit]",
O=C(Cn1ccc2cc(Cl)ccc21)Nc1ccc(O)cc1,inactive,
O=C1OC(c2cccs2)=N/C1=C\c1ccc(-c2cccc(Cl)c2)o1,"inconclusive: 22.4 µM [inhibitor, full curve]",
CC(C)C(=O)Nc1ccc2c(C(C(=O)O)N3CCN(C)CC3)c[nH]c2c1 (stereo unspecified),"inconclusive: 100 µM [inhibitor, single point]",
Cc1ccc2nc(-c3ccco3)c(Nc3ccc4c(c3)OCCO4)n2c1,"inconclusive: 112 µM [inhibitor, partial curve, poor fit]",

# 6 compounds from above, ordered by heavy-atom count, falling.
SMILES,Potency,"activity change, negative = inhibition"
Cc1ccc(NS(=O)(=O)c2ccc(C(=O)NC3CCN(Cc4ccccc4)CC3)cc2)cc1,"inconclusive: 44.7 µM [inhibitor, partial curve]",
C/C=C1\COC(C(=O)NCc2ccccc2)(C(F)(F)F)C=C1C=C(C)C (stereo unspecified),inactive,
CCc1ccc(C(=O)N2C[C@@H](F)C[C@H]2C(=O)N2CCCCC2)cc1,inactive,
O=C(c1cccs1)N1CCN(CCCc2ccccc2)CC1,"inconclusive: 0.794 µM [inhibitor, full curve]",
Cc1ccc(N2NC3(CCC(C)CC3)NC2=S)cc1 (stereo unspecified),active: 1.26 µM,
Cc1cc(CSC(=N)N)c(CSC(=N)N)cc1C,"inconclusive: 1.78 µM [inhibitor, full curve, poor fit]",

# Additional records.

SMILES,Potency,"activity change, negative = inhibition"
COc1ccc(C(=O)ON=C2CCCCC2)cc1I,"inconclusive: 112 µM [inhibitor, partial curve, poor fit]",
CC1(C)Cc2ccccc2/C(=C/C(=O)Nc2ccc(Cl)cc2Cl)N1,"inconclusive: 28.2 µM [inhibitor, partial curve, poor fit]",
Cn1c(Cn2cccn2)nnc1C1CCCN(C(=O)CCn2cnnn2)C1 (stereo unspecified),"inconclusive: 17.8 µM [inhibitor, full curve, poor fit]",
CCCN(C(=O)COC(=O)CCOc1ccccc1)c1c(N)n(Cc2ccccc2)c(=O)[nH]c1=O,"inconclusive: 100 µM [inhibitor, single point]",
O=C(Nc1cc2c(cc1C(O)c1ccc(Br)cc1)OCCO2)c1ccc(F)cc1 (stereo unspecified),"inconclusive: 28.2 µM [inhibitor, partial curve, poor fit]",
CCOC(=O)/C=C/c1ccccc1,inactive,
Cc1cc(=O)oc2cc(OCc3cccc4ccccc34)ccc12,inactive,
Cc1ccc2nc(C)c(C(=O)N(C)CCOc3ccc(F)cc3)cc2c1,"inconclusive: 44.7 µM [inhibitor, partial curve, poor fit]",
NC(=S)N/N=C1\CC(c2ccc3c(c2)OCCO3)Oc2ccc(F)cc21 (stereo unspecified),"inconclusive: 35.5 µM [inhibitor, partial curve, poor fit]",
COc1ccc(Nc2nc(-c3ccc(CNC(C)=O)s3)cs2)cc1,"inconclusive: 56.2 µM [inhibitor, single point]",
O=C(CN1CCN(C2CCS(=O)(=O)C2)CC1)N1N=C(c2ccc(Cl)cc2)CC1c1ccco1 (stereo unspecified),"inconclusive: 100 µM [inhibitor, partial curve, poor fit]",
CCC(=O)N1CCC2(CC1)CC(N(Cc1ccccc1)C1CC1)CCO2 (stereo unspecified),inactive,
Cc1ccc2nc(NC(=O)C3CC3C)sc2c1 (stereo unspecified),inactive,
CCC(C)(C)n1nnnc1C(c1cccs1)N1CCN(c2nc3ccccc3s2)CC1 (stereo unspecified),"inconclusive: 89.1 µM [inhibitor, partial curve, poor fit]",
COc1cccc(-c2cc(C(=O)NCCC(C)n3ccnc3)[nH]n2)c1 (stereo unspecified),inactive,
COc1cccc2[nH]c(C(=O)NCc3ccc4c(c3)CCN4C(=O)c3ccc(F)cc3)cc12,inactive,
COc1ccc(CNC(=O)c2ccc(-c3nc(CS(=O)c4ccc(C)cc4)c(C)o3)cc2)cc1 (stereo unspecified),"inconclusive: 50.1 µM [inhibitor, partial curve, poor fit]",
O=C(Nc1ccc2oc(-c3ccccc3)cc(=O)c2c1)c1ccco1,"inconclusive: 0.794 µM [inhibitor, full curve, poor fit]",
Cc1ccc(CN2CCN(Cc3ccc4ncccc4c3)CC2CCO)cc1 (stereo unspecified),"inconclusive: 79.4 µM [inhibitor, single point]",
N#Cc1ccc(OCC(=O)N2CCN(c3ccc(C(F)(F)F)cn3)CC2)cc1,inactive,
CCCCC(=O)NC(c1ccc(N(C)C)cc1)c1ccc2cccnc2c1O (stereo unspecified),"inconclusive: 28.2 µM [inhibitor, partial curve, poor fit]",
CCCCN(CCCC)S(=O)(=O)c1[nH]ncc1C(=O)OCC,"inconclusive: 1.78 µM [inhibitor, full curve, poor fit]",

SMILES,Potency,"activity change, negative = inhibition"
Cc1ccc(NS(=O)(=O)c2ccc3oc(=O)ccc3c2)c(C)c1,"inconclusive: 112 µM [inhibitor, single point]",
O=CNc1ccc(O)cc1,inactive,
Cc1cccc(N2CC(C(=O)Nc3nnc(SCc4ccccn4)s3)CC2=O)c1 (stereo unspecified),"inconclusive: 44.7 µM [inhibitor, partial curve, poor fit]",
Fc1ccc(C2CC(c3ccco3)=Nc3ccccc3S2)cc1 (stereo unspecified),inactive,
Cc1cccc(N2CCN(C(=O)CN3C(=O)NC(C)(C4CC4)C3=O)CC2)c1C (stereo unspecified),inactive,
Cc1ccc2c(C)c(C(=O)NCCc3ccco3)oc2c1C,"inconclusive: 50.1 µM [inhibitor, partial curve, poor fit]",
CC1CCN(C(=O)c2nc3nc(-c4ccco4)cc(C(F)(F)F)n3n2)CC1,"inconclusive: 89.1 µM [inhibitor, partial curve, poor fit]",
CC(C(=O)NCc1nnc2ccc(-c3ccccc3)nn12)c1ccccc1 (stereo unspecified),inactive,
c1ccc2cc(OCCCn3ccnc3)ccc2c1,inactive,
N#CC(=Cc1ccc(-c2ccccc2)cc1)C(=O)c1ccccc1,"inconclusive: 50.1 µM [inhibitor, partial curve, poor fit]",
O=C1CC2(CCCC2)CC(=O)N1CCCCN1CCN(c2ncccn2)CC1,inactive,
CCc1ccc(NC(=O)c2cnn3c2NC(C(=O)O)=CC3c2cc(OC)ccc2OC)cc1 (stereo unspecified),"inconclusive: 50.1 µM [inhibitor, single point]",
COc1ccc(CCNc2cc(C)nc3c(-c4ccccc4)cnn23)cc1OC,inactive,
COc1ccc(Cn2nc(C)n(N(C)c3ncc(C(F)(F)F)cc3Cl)c2=O)cc1,,inconclusive: -34.9% [inhibitor]
CCc1nc(SCC(=O)c2ccc3c(c2)OCCO3)c2ccccc2n1,"inconclusive: 5.62 µM [inhibitor, full curve, poor fit]",
COc1ccccc1Cc1c(C2CCCCC2)nc2c(C)cc(Br)cn12,"inconclusive: 112 µM [inhibitor, single point]",
CCOC(=O)c1sc(Nc2cc(C)ccc2C)nc1C(F)(F)F,"inconclusive: 56.2 µM [inhibitor, partial curve, poor fit]",
CCc1cc(Cn2nc(-c3ccccc3)cc2C(=O)NCC2CC2)on1,"inconclusive: 44.7 µM [inhibitor, partial curve, poor fit]",
Cc1ccccc1C(=O)Nc1nc(-c2ccc(Cl)s2)cs1,"inconclusive: 126 µM [inhibitor, single point]",
CC(C)c1ccc(NC(=O)/C(C#N)=C/c2ccncc2)cc1,"inconclusive: 44.7 µM [inhibitor, partial curve, poor fit]",
Cc1csc(NC(CO)c2nc3ccccc3n2CCOCCO)n1 (stereo unspecified),"inconclusive: 44.7 µM [inhibitor, partial curve, poor fit]",
CC(C)(C)c1ccc(C(=O)Nc2ccc(C(=O)NCc3cccnc3)cc2)cc1,"inconclusive: 12.6 µM [inhibitor, full curve, poor fit]",
